The values below come from paper PMC9505868.

Amino acid sequences for entries named in this document (tags omitted).
UniProt P18272: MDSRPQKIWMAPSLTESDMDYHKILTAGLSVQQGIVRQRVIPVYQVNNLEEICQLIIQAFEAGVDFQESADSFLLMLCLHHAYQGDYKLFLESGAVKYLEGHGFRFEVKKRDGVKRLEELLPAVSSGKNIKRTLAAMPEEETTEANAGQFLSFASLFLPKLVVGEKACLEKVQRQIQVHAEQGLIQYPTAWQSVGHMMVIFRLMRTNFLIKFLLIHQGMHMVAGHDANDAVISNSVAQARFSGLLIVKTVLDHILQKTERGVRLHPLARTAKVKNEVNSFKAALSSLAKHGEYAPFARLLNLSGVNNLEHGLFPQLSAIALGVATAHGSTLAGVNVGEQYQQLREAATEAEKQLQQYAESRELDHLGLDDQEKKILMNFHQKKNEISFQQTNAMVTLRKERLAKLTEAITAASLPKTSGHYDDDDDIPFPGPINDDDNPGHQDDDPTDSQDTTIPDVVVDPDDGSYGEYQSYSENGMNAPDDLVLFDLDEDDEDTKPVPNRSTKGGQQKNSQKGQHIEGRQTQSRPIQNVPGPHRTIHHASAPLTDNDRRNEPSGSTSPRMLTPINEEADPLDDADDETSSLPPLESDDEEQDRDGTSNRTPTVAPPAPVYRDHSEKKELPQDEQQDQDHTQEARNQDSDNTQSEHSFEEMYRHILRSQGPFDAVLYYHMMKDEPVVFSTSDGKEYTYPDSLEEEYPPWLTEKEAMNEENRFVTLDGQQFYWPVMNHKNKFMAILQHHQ
UniProt Q05128: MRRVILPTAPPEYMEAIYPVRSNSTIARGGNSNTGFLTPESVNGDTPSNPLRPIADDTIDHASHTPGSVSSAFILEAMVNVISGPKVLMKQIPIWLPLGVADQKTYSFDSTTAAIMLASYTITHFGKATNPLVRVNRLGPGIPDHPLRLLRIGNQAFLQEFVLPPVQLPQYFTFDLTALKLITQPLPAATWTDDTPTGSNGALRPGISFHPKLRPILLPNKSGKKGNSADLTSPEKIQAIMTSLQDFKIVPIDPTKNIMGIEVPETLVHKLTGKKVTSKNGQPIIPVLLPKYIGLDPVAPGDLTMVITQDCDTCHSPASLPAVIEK
UniProt Q05323: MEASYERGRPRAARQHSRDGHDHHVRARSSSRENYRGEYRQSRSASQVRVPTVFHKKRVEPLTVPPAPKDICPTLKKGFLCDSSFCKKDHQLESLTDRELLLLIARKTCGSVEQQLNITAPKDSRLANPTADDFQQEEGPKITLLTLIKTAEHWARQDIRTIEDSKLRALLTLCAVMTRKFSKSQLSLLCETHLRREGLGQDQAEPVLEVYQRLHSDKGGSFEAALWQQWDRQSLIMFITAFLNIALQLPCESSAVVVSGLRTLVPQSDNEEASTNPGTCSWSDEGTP
UniProt P11940: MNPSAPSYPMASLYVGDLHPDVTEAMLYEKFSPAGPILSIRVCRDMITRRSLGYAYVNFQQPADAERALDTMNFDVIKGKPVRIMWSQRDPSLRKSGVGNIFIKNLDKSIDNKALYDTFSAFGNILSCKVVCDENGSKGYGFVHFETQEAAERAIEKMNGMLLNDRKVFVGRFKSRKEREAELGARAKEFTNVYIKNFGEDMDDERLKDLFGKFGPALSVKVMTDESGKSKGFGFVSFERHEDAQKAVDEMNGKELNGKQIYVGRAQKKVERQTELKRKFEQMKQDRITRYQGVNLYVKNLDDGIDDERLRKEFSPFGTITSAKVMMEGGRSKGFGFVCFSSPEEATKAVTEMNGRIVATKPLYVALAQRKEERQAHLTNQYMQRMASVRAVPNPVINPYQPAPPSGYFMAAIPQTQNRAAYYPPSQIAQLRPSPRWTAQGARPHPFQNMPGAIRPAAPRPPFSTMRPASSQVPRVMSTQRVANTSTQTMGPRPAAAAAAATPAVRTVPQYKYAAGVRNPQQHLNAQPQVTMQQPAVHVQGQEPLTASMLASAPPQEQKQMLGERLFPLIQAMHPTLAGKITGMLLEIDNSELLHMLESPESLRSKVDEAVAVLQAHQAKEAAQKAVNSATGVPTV

No constants are given. Whether binding was seen depends on the method and setting. In cells and extracts the contact can be indirect. Some binding calls cover weakened binding; strength is not graded here.

In assay [1] the target is Ebola virus nucleoprotein (NP) (Ebola virus (EBOV)) (UniProt P18272). Kind of assay: proximity ligation.
The target in assay [2] is GFP10-VP40 (EBOV VP40 fused to the 10th beta-strand of GFP) (Ebola virus (EBOV)) (UniProt Q05128). In words: split reporter.

Consider “Ebola virus VP30 (from UniProt Q05323 1-288)”, for which the binding result in assay [1] is listed as “binds”.
Regarding “GFP11-PABPC1 (polyA binding protein PABPC1 tagged with GFP11) (from UniProt P11940 1-636)”, in assay [2], the binding entry is reported as “no binding”.
